PubChem BioAssay AID1053208, Peter MacCallum Cancer Centre | 2014

- Test: 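Genes whose silencing cuts survival of bone tumour cells only with doxorubicin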 (primary screen)
- Cells: mouse osteosarcoma cells, early-passage culture from an engineered mouse model of fibroblastic bone tumour
- Reagents: siRNA pool against mouse genes, 40 nM
- Time to read-out: about 120 h (48 h before drug, then 72 h with drug)
- Treatment: doxorubicin 100 nM for 72 h, roughly 30-40% inhibitory dose
- Measured: 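Viability read as ATP luminescence after 72 h of 100 nM doxorubicin or none, duplicate wells averaged, scaled to non-targeting siRNA, then expressed as robust z-scores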
- Direction: viability z-score with doxorubicin and doxorubicin viability vs non-targeting: higher = more viable cells under doxorubicin; viability z-score without drug: higher = more viable cells with knock-down alone; z-score of drug to no-drug ratio: higher = less drug sensitisation by knock-down
- Rule for the call: 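a pool counts as active when its viability z-score with doxorubicin is -2 or below and its z-score without drug lies between -2 and 2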
Shown is a random part of about 17,000 deposited reagents. Over the whole deposit, 788 (4.7%) were called active. 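Calls rest on z-score classes alone; an extra cut-off of viability at most 70% of control was not applied to them.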 A number with no mark means an inactive call.

target	combined z-score class	viability z-score with doxorubicin	viability z-score without drug	z-score of drug to no-drug ratio	doxorubicin viability vs non-targeting
9630013D21Rik	no change with or without drug	0	0.51	-0.22	0.94
Ovch2	low cell count with doxorubicin only (active)	-2.7	-1.18	-2.02	0.7
Ctrb1	no change with or without drug	-0.45	1.52	-1.24	0.9
Snx15	no change with or without drug	0.56	-0.84	1.35	0.99
Hax1	no change with or without drug	0.67	1.35	-0.11	1
Htra3	low cell count with doxorubicin only (active)	-2.25	-1.18	-1.57	0.74
Rabl2	no change with or without drug	0.22	-0.67	0.79	0.96
Pabpc1	low cell count with and without drug	-5.17	-3.88	-3.48	0.48

Already shown: entries from further up.
target	combined z-score class	viability z-score with doxorubicin	viability z-score without drug	z-score of drug to no-drug ratio	doxorubicin viability vs non-targeting
Snx15	no change with or without drug	0.56	-0.84	1.35	0.99
Hax1	no change with or without drug	0.67	1.35	-0.11	1

The results go on:
target	combined z-score class	viability z-score with doxorubicin	viability z-score without drug	z-score of drug to no-drug ratio	doxorubicin viability vs non-targeting
Adss1	no change with or without drug	0.67	-0.84	1.46	1
Oaz3	no change with or without drug	1.35	0.34	1.24	1.06
Grm4	no change with or without drug	0.56	1.01	0	0.99
Srp68	no change with or without drug	0.67	1.52	-0.22	1
Ndufs1	no change with or without drug	0.67	0.51	0.45	1
Egln1	no change with or without drug	-1.01	-0.17	-0.9	0.85
Acot5	no change with or without drug	-0.11	0.17	-0.11	0.93
Actl7a	no change with or without drug	-0.11	0.84	-0.56	0.93
Ccdc187	no change with or without drug	-1.12	0.84	-1.57	0.84
9330160A12	no change with or without drug	-0.11	0.67	-0.45	0.93
Psg17	no change with or without drug	-0.45	-1.18	0.45	0.9
Evl	no change with or without drug	-1.12	0.51	-1.35	0.84
